In PubChem BioAssay AID540276 (National Center for Advancing Translational Sciences (NCATS), 2011):
Out of some 300,000 compounds screened, about 5,400 (1.8%) were called active. Inconclusive means that the source gave no clear call. Such entries were picked first, then a sample of the others. The call rests on the fitted dose curve; tested in HEK293 cells. Potencies beside an inconclusive call are fits to weak or partial responses and may not hold up.

Experiment: qHTS for inhibitors of binding or entry into cells for Marburg Virus
Settings: Marburg virus pseudotyped entry inhibition, cell reporter; activity change, negative = inhibition: at 37.8 µM (top of the series) unless noted
On the % scale 0 is the no-effect control and ±100 the full control effect; potency means the concentration at half of the fitted maximal effect.

SMILES	activity change, negative = inhibition	Potency
Cn1c(Cl)c(/C=N/OC(=O)c2ccc(Cl)cc2)c2ccccc21	inconclusive: 1.35% [activator]	–
CCOC(=O)c1cc(CC)sc1NC(=O)c1cc(OCC)c(OCC)c(OCC)c1	–	inactive
CCOc1ccc(NC(=O)CSc2nc(=O)n(Cc3cccnc3)c3c2CCC3)cc1	–	inconclusive: 35.5 µM [inhibitor, single point]
O=c1[nH]n2c(C(F)(F)F)cc(C3CC3)nc2c1N=Nc1ccccc1	–	inactive
CC(NS(=O)(=O)c1ccc(OCC(=O)Nc2cccc([N+](=O)[O-])c2)cc1)c1ccccc1 (stereo not drawn)	–	inconclusive: 5.62 µM [inhibitor, full curve, poor fit]
COc1ccc(C(CC(=O)O)NC(=O)COc2cc(C)ccc2C)cc1OC (stereo not drawn)	–	inconclusive: 31.6 µM [activator, single point]
COc1ccccc1NC(=S)NNC(=O)c1c(Cl)c(C)nn1C	–	inactive
Cc1ccc(CNC(=O)C2(S(=O)(=O)c3ccc(C)cc3)CC2)cc1	–	inconclusive: 35.5 µM [inhibitor, single point]
COc1ccc(NC(=O)CC(c2ccc(F)cc2)c2ccc(OC)cc2)cc1 (stereo not drawn)	–	inconclusive: 35.5 µM [activator, single point]
CCCn1c(SCC(=O)Nc2nccs2)nnc1-c1cccnc1	–	inconclusive: 1 µM [inhibitor, full curve, poor fit]
CCOc1ccc(S(=O)(=O)N2CCCC(C(=O)N3CCCC3)C2)cc1 (stereo not drawn)	–	inconclusive: 3.16 µM [inhibitor, partial curve, poor fit]
CSc1ccc(CN(C)C(=O)c2ccc(S(=O)(=O)Nc3ccccc3)cc2)cc1	–	inconclusive: 12.6 µM [inhibitor, partial curve, poor fit]
Cc1cccc(-c2noc(CCCC(=O)NC3CCCCC3)n2)c1	–	inconclusive: 8.91 µM [inhibitor, partial curve, poor fit]
COc1ccccc1CNC(=O)COC(=O)c1cc(C)nc2ccccc12	–	inactive
Cc1oc(-c2ccc(Cl)cc2)nc1CN1CCC(C(=O)NCc2ccco2)CC1	–	inconclusive: 9.2 µM [inhibitor, single point]
O=C(NNC(=O)c1ccccc1O)c1ccc(S(=O)(=O)Nc2ccccc2)cc1	–	inconclusive: 15.8 µM [inhibitor, partial curve]
CN(Cc1ccccc1)S(=O)(=O)c1cn(C)cn1	–	inconclusive: 25.1 µM [inhibitor, single point]
O=C1CN(C(=O)c2cc(Br)c(Br)s2)c2ccccc2N1	–	inconclusive: 35.5 µM [inhibitor, single point]
CCS(=O)(=O)c1ccc(C(=O)Nc2ccccc2)c(Cl)c1Cl	–	inconclusive: 31.6 µM [inhibitor, single point]
CCNC(=O)/C(C#N)=C/c1c(N2CCN(C)CC2)nc2c(C)cccn2c1=O	–	inconclusive: 11.2 µM [inhibitor, partial curve, poor fit]
O=c1[nH]c2ccccc2c2ccccc12	–	inconclusive: 0.0224 µM [inhibitor, full curve, poor fit]
COCC(=O)N(Cc1cc2ccc(C)cc2[nH]c1=O)c1ccc(C)cc1C	inconclusive: 8.67% [activator]	–

Record cards, from the list above. Order of values: activity change, negative = inhibition | Potency
CCOC(=O)c1cc(CC)sc1NC(=O)c1cc(OCC)c(OCC)c(OCC)c1 is listed as – | inactive
CCS(=O)(=O)c1ccc(C(=O)Nc2ccccc2)c(Cl)c1Cl is listed as – | inconclusive: 31.6 µM [inhibitor, single point]

Next structures follow:

SMILES	activity change, negative = inhibition	Potency
CC1CC(C(F)(F)C(F)(F)F)n2nc(C(=O)O)cc2N1 (stereo not drawn)	–	inactive
CN(C)CCN(C(=O)/C=C/c1cccs1)c1nc2c(F)cc(F)cc2s1	–	inconclusive: 10 µM [inhibitor, partial curve, poor fit]
CC(C)(C)c1ccc(C(=O)Nc2ccc(CN3CCS(=O)(=O)CC3)cc2)cc1	–	inconclusive: 7.94 µM [inhibitor, partial curve, poor fit]
CCNc1nc(-c2ccc(OC(F)F)cc2)c(C)s1	–	inconclusive: 0.501 µM [activator, full curve, poor fit]
O=C(NN1CCOCC1)c1ccccc1	–	inactive
Cc1cc(C)cc(NC(=O)Cc2ccc(S(=O)(=O)N3CCCC3)s2)c1	–	inconclusive: 17.8 µM [inhibitor, single point]
CN(C(=O)CS(=O)(=O)c1cn(CC(=O)N2CCOCC2)c2ccccc12)c1ccccc1	–	inconclusive: 5.01 µM [activator, single point]
CC1CC(C)CN(c2ncc3c(n2)CC(c2ccccc2Cl)CC3=O)C1 (stereo not drawn)	–	inconclusive: 25.1 µM [inhibitor, partial curve]
CCOc1ccc(/C=C/c2c([N+](=O)[O-])c(=O)n(C)c(=O)n2C)cc1	–	inconclusive: 25.1 µM [inhibitor, single point]
O=C(C1CCCN(S(=O)(=O)c2cccs2)C1)N1CCN(c2cccc(Cl)c2)CC1 (stereo not drawn)	–	inconclusive: 14.1 µM [inhibitor, single point]
CSc1ccccc1C(=O)C1CCCN(C(=O)c2cc(C(C)C)no2)C1 (stereo not drawn)	–	inactive
O=C(c1cccs1)C1C(c2ccc(Br)cc2)NC(=S)NC1(O)C(F)(F)F (stereo not drawn)	–	inconclusive: 0.0731 µM [inhibitor, partial curve, poor fit]
CC12CN3CN(C1)CC(C)(C3)C2=NO	–	inconclusive: 0.1 µM [inhibitor, full curve, poor fit]
O=c1c2cc3c(cc2nc2sc(Nc4ccc(F)cc4F)nn12)OCO3	–	inactive
CCOc1ccc(/C=C(\C(=O)O)c2ccc(S(=O)(=O)N3CCCCC3)s2)cc1OC	–	inactive
COc1ccc([N+](=O)[O-])cc1NC(=O)COC(=O)c1ccccn1	–	inconclusive: 0.891 µM [inhibitor, single point]
CC(=O)Nc1ccc(NC(=O)C(C)Oc2ccccc2F)cc1 (stereo not drawn)	–	inactive
Cc1ccc(NC(=O)Cn2nnnc2-c2ccccc2N)cc1	–	inactive
N#Cc1c(N)[nH]c2ccc(Sc3ccccc3)cc12	–	inconclusive: 0.891 µM [inhibitor, full curve, poor fit]
O=C(NCCN1CCOCC1)c1cc2ccccc2oc1=O	–	inconclusive: 31.6 µM [activator, single point]
COc1ccc(S(=O)(=O)NCC(c2cccnc2)N2CCN(Cc3ccccc3)CC2)cc1C (stereo not drawn)	–	inconclusive: 1 µM [inhibitor, full curve, poor fit]
